Reference: PubChem BioAssay AID1347423 (Functional Genomics Laboratory (NCATS/FGL), 2020)
The whole screen tested about 52,000 sequences, of which about 210 (0.4%) were called active.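 Rule for the calls: active = gene whose silencing raises cell survival under the drug, median off-target-corrected z-score across its silencing RNAs 2 or more; inactive = the rest.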 The list shows a part of the results.

Assay: Resistance to Poly (ADP-Ribose) Polymerase inhibitor: Gene Identification via Genome-wide siRNA Screen
Details: mouse BRCA2 R2336H ES cells, olaparib, CellTiter-Glo viability; stronger effect = higher value
How it was run: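 Genome-wide siRNA screen (3 siRNAs/gene, 20 nM) in mouse ES cells carrying hypomorphic BRCA2 R2336H; olaparib 500 nM added 48 h post-transfection, CellTiter-Glo viability 72 h later. Normalized to plate-median negative control; MAD z-scores, gene median, seed-adjusted.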

Sequence | z-score
CGAGACUAGAUUCGUGCAGTT against D930048N14Rik | inactive: 0.341
GGAGGACGUAUCAUUACAUTT against Ptk9 | inactive: -1.24
GGUUCCUACGAGUUCACUGTT against LOC434198 | inactive: -3.17
GGUUGUGCUGUGAACAGAGTT against 2410012H02Rik | inactive: 1.19
GGACUGAGAGGGAUGGUAATT against A530016L24Rik | inactive: 1.1
GGAGAUAUGACCAUCUCCUTT against Olfr798 | inactive: 0.199
CGGUCUGUUCCUAAUAAAUTT against Faim2 | inactive: -1.06
GGGAGAUCAUGAUAGCAGCTT against Cox5b | inactive: 0.374
GGCUAUCACCUCCAACACCTT against Fkbp8 | inactive: -0.71
GGAAGAAUUCGAAAAUGUGTT against 4921525D22Rik | inactive: -0.911
GGUUUAGGGCUUGCUAUAUTT against Mal | inactive: -0.436
GGUUCCUAAACAUACUUGUTT against 2900010J23Rik | inactive: -1.92
GGAAAGUUUUGGCGACUACTT against E330023O18 | inactive: -0.972
GGUGGUAUCACCUCUAUCATT against 1700019F09Rik | inactive: 0.64
GCCUUAAGGUCUCCGUUCUTT against Gse1 | inactive: -0.677
GGGCCAAAAGCUUAUUAAUTT against Arhgap20 | inactive: 0.255
GGCCUGGUUCUGCAUAAGCTT against Gas2 | inactive: 1.17
GGGACAGGACAGUUAGAUGTT against Msc | inactive: 1.3
GGGCCUAGUCAAAAUGUUGTT against Fbxo7 | inactive: -0.663
CGAUCGAUAAAUGUAAUGATT against D930036F22Rik | inactive: 1.54
GGAGAUCGUUGUCCAACUCTT against Trpc2 | inactive: -0.517
GCCGGUUGUAGAAAGGAGUTT against Frs2 | inactive: 0.736

Sequence | z-score
GGAGCUACGAAGAGGAUCUTT against 0610008N23Rik | inactive: -0.675
GCGGAGAGAAAGAGCUGAGTT against C230071H18Rik | inactive: 0.109
GCUUAACUAGUAUCCUAUGTT against Tas2r135 | inactive: 0.53
GGUUCACCCAGGAAGUUCATT against Scn9a | inactive: -2.27
GGAACAAUUGAUAAGACGATT against AA407526 | inactive: -0.681
GGAGCAUAAAAGAGAAAGATT against Jundm2 | inactive: -0.244
CCUUAAACAGCUUUUCAGATT against Dnchc2 | inactive: 0.886
GGCUAUGUGCUGCACUUGCTT against Cyp27a1 | inactive: 0.467
GGCCAUUGUAGAGCUGGUATT against Myh9 | inactive: -2.55
GCAGCUUUUGUACUAUCUATT against Kifap3 | inactive: -0.0279
CCUGUUUGCAUAGAUAGACTT against Pdgfc | inactive: -0.0813
GGAGGUGGACCAAAAUGUCTT against Tessp2 | inactive: -1.57
GGGCAUGAUAAGGAAGACATT against 1700029F12Rik | inactive: -1.57
CCACCUCACAUUAAAAAAGTT against Smc1l1 | inactive: 0.657
GGAACAAGGAUGUAAAAUUTT against Olfr1090 | inactive: -0.69
AACUGUCACCGUUCAAACCTT against Ociad2 | inactive: -1.42
GGAACUCUGUAGUUUUCAATT against 4732437J24Rik | inactive: -0.62
GGAGUAAAAAUGAGUAUGATT against Abcg3 | inactive: -1.48
GCAUGAUUCACCUGACACCTT against Titf1 | inactive: 1.01
CCCAUUGAACUGCAUACUATT against Car3 | inactive: -0.375
CGAUAUGAUGUAUUCCAUCTT against Fcmd | inactive: -0.232
CCGUGUUUAAAGACAGUCCTT against B230369L08Rik | inactive: -0.645

Single values from the list:
In z-score, CCUGUUUGCAUAGAUAGACTT against Pdgfc reads inactive: -0.0813
In z-score, CGAUAUGAUGUAUUCCAUCTT against Fcmd reads inactive: -0.232

(next part)

Sequence | z-score
GGAGCUCUAUAGAAAUGCATT against Cul3 | inactive: -0.355
GGAUCACAGAAUAGAACAATT against Ptgds2 | inactive: -0.651
GGAUUAGACCUAUGGUGCUTT against B930011P16Rik | inactive: 3.48
GGGACAAGGACUUUAAAAATT against Scamp2 | inactive: 0.917
GGGCUGAUGAGCAAAGCAUTT against ORF21 | inactive: -0.817
CCGACUCUUGGUGCCAUACTT against Hadhsc | inactive: -0.689
GCCUAUCAGAAGCUGUUAATT against Prkr | inactive: -1.25
GGAGUGAUAGAAUCAACAUTT against Manea | inactive: 0.82
GGAAAAUGCCAUUCAUUUUTT against 4930401F20Rik | inactive: -0.824
CCUCUUAUCUCGAACAUUATT against 1700022L09Rik | inactive: -0.237
GGUGGAUAAUGUUUAAACATT against V1rg7 | inactive: -0.136
GGAGGUCCCAGUCAUUAUCTT against Gdap1l | inactive: 0.497
GGAGCUCCUGAACAGGAUCTT against Gpr26 | inactive: 0.245
CCAAGAAGGUUGGGAAAGCTT against 1100001I22Rik | inactive: -3.08
CCAUAUGUAGCUAUGGUUATT against Cul2 | inactive: 1.04
GCACAAAUGGGAAUACGACTT against BC025816 | inactive: 1.07
CGCACAGUACUUUUCUCCUTT against Rtn1 | inactive: 0.166
GCUCUAUCGUCCAAGCUUUTT against Dazap2 | inactive: 1.53
GGCCCUAUGAUGAACCUAATT against Calb2 | inactive: -0.767
CCUACUCGUGUCGUGAUAATT against Rxrb | inactive: -0.622
GCUCAGGUAUCUUCGAUUATT against LOC434179 | inactive: 1.78
ACGAGGGCCUGAAAAACCUTT against Hbb-b2 | inactive: -1.6
